Results from PubChem BioAssay AID2685 (National Center for Advancing Translational Sciences (NCATS), 2010).
Out of some 320,000 compounds screened, about 2,100 (0.66%) were called active. The shares of active, inactive and inconclusive entries below differ from those in the screen. Calls follow the shape of the dose curve; as a rule, active = well fitted inhibition curve with a large enough effect in the signal ratio, with a control signal flat (not every such curve was filed as active); inconclusive = small, poorly fitted or top-dose-only effect, or effect the other way, or a change in a side signal; inactive = flat fitted curve, though single readings scatter; the % refers to the signal ratio. Where the call is inconclusive, the potency comes from a doubtful curve fit.

assay: qHTS Assay for Lipid Storage Modulators in Drosophila S3 Cells; settings: BODIPY lipid droplet fluorescence, 18-24 h, cells fed with added oleic acid; lipid storage change, negative = inhibition: at 46.1 µM (top of the series) unless noted
Outline: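 Laser-scanning cytometry quantifies lipid droplet accumulation (500–530 nm total intensity; droplet/cell object ratio) in oleic acid-fed (400 uM added) Drosophila S3 cells treated with a concentration series. 20 uM Triacsin C defined 100% inhibition.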
% is scaled to controls: 0 for no effect and ±100 for the full control effect; potency is read from the fitted curve at half-maximal effect.

Q: Which Potency does the source give for `COc1ccc(/C=C(/C#N)c2cccnc2)cc1OC` here?
A: The Potency was inconclusive: 0.651 µM [activator, full curve, poor fit].

Q: With `CC1(CCc2ccc3c(c2)OCO3)NC(=O)c2ccccc2N1` (stereo not drawn) as the compound, how does the lipid storage change, negative = inhibition read?
A: The lipid storage change, negative = inhibition was inconclusive: -29.2%.

Q: Which lipid storage change, negative = inhibition does the source give for `CCOC(=O)c1nc(N2CCN(C(=O)OCC)CC2)c2c3c(sc2n1)CCCC3` here?
A: The lipid storage change, negative = inhibition was inconclusive: -15.7%.

Q: For `CCC(=O)N1CCc2cc(Br)cc(S(=O)(=O)NCCN3CCCCC3C)c21` (stereo not drawn), which lipid storage change, negative = inhibition is on record?
A: Its lipid storage change, negative = inhibition is inconclusive: 4.44%.

Q: For `COc1cc(NC(=O)c2ccccc2NS(=O)(=O)c2ccc(Cl)s2)cc(OC)c1`, which Potency is on record?
A: The Potency was active: 16.4 µM.

Q: Which Potency does the source give for `CN1C(C(=O)NCc2cccc(Br)c2)CC2Cn3c(nc4cc(Cl)c(Cl)cc43)C21` (stereo not drawn) here?
A: Its Potency is inconclusive: 11.6 µM [activator, single point].

Q: With `C=CCn1c(COc2ccccc2-c2ccccc2)nnc1SCC(=O)NC(=O)NCc1ccco1` as the compound, how does the Potency read?
A: Its Potency is inconclusive: 23.1 µM [activator, partial curve].

Q: With `CC(C)CN(C(=O)COc1ccc(-c2nnco2)cc1)C1CCS(=O)(=O)C1` (stereo not drawn) as the compound, how does the lipid storage change, negative = inhibition read?
A: Its lipid storage change, negative = inhibition is inconclusive: 3.6%.

Q: For `CC1(C)CC(=O)c2cc3c(N)c(C(=O)NCc4ccccc4)sc3nc2C1`, which lipid storage change, negative = inhibition is on record?
A: The lipid storage change, negative = inhibition was inconclusive: -37.5%.

Q: Which lipid storage change, negative = inhibition does the source give for `O=C(Nc1ccccc1C(=O)NCc1ccco1)Nc1cccc2ccccc12` here?
A: The lipid storage change, negative = inhibition was inconclusive: -6.08%.

Q: With `COc1cccc(-c2csc(NC(C)=O)n2)c1` as the compound, how does the Potency read?
A: Its Potency is inconclusive: 1.3 µM [rising, partial curve, poor fit].

Q: Which Potency does the source give for `Cc1cc(/C=N/NC(=O)C(=O)NCc2ccccn2)c(C)n1-c1ccccc1` here?
A: Its Potency is inconclusive: 1.3 µM [activator, partial curve].

Q: For `O=C(N/C(=C\c1ccc([N+](=O)[O-])cc1)C(=O)N1CCOCC1)c1ccco1`, which Potency is on record?
A: The Potency was inconclusive: 0.291 µM [falling, single point].

Q: Which lipid storage change, negative = inhibition does the source give for `Cc1onc(-c2c(F)cccc2Cl)c1C(=O)OCc1nnc(-c2ccccc2)o1` here?
A: The lipid storage change, negative = inhibition was inconclusive: 12.7%.

Q: For `Fc1ccc(CSc2ncnc3nc[nH]c23)cc1`, which lipid storage change, negative = inhibition is on record?
A: The lipid storage change, negative = inhibition was inconclusive: -5.6%.

Q: For `N#CC1=C(N)Oc2n[nH]c(-c3ccccc3)c2C12C(=O)Nc1ccccc12` (stereo not drawn), which Potency is on record?
A: Its Potency is inconclusive: 29.1 µM [activator, single point].

Q: Which Potency does the source give for `Cc1c(C(=O)Nc2nonc2-c2ccc(F)cc2)oc2ccc(F)cc12` here?
A: Its Potency is inconclusive: 29.1 µM [falling, single point].

Q: For `COc1ccc(CNC(=O)c2ccc[nH]2)cc1`, which lipid storage change, negative = inhibition is on record?
A: The lipid storage change, negative = inhibition was inconclusive: -29.1%.

Q: With `O=C1C2CC=C(Cl)CC2C(=O)N1CC1Cc2ccccc2CO1` (stereo not drawn) as the compound, how does the lipid storage change, negative = inhibition read?
A: Its lipid storage change, negative = inhibition is inconclusive: 7.28%.

Q: For `O=C(NCCc1ccccc1)C(=O)NCC1CCCN1S(=O)(=O)c1cccs1` (stereo not drawn), which lipid storage change, negative = inhibition is on record?
A: Its lipid storage change, negative = inhibition is “inconclusive”.

Q: For `COc1ccc(OC)c(-c2nc(C(=O)NCCCN3CCOCC3)cc3c2[nH]c2ccccc23)c1`, which Potency is on record?
A: Its Potency is inconclusive: 29.1 µM [falling, single point].

Q: For `O=C(NCc1ccccc1)c1ccc(S(=O)(=O)N2CCCC2)cc1`, which Potency is on record?
A: Its Potency is inconclusive: 0.0052 µM [falling, full curve, poor fit].

Q: With `CN(CCCC(=O)Nc1ccc(OC(F)F)cc1)S(=O)(=O)c1ccc(F)cc1` as the compound, how does the Potency read?
A: Its Potency is inconclusive: 29.1 µM [falling, partial curve, poor fit].

Q: With `CCN(CC(=O)Nc1c(F)cccc1F)C(=O)CCN1C(=O)C2CCCCC2C1=O` (stereo not drawn) as the compound, how does the lipid storage change, negative = inhibition read?
A: The lipid storage change, negative = inhibition was “inconclusive”.

Q: Which Potency does the source give for `CC(C)(C)c1cc(=O)n2c(C#N)c(C#N)nc2[nH]1` here?
A: The Potency was inconclusive: 6.51 µM [falling, single point].

Q: Which Potency does the source give for `Cc1nnc(SCCn2c(N3CCN(C)CC3)nc3c2c(=O)[nH]c(=O)n3C)s1` here?
A: Its Potency is inconclusive: 18.4 µM [activator, single point].

Q: With `CC(C(=O)Nc1nc2ccccc2[nH]1)N1C(=O)C2CC=CCC2C1=O` (stereo not drawn) as the compound, how does the Potency read?
A: Its Potency is inconclusive: 2.06 µM [activator, partial curve].

Q: With `CCC(C)C(NC(=O)c1ccc(Cl)cc1)C(=O)Nc1cccnc1` (stereo not drawn) as the compound, how does the Potency read?
A: Its Potency is inconclusive: 20.6 µM [rising, partial curve].

Q: For `CC(=O)Nc1ccc(NC(=O)C(C)OC(=O)CCc2nc3ccccc3s2)cc1` (stereo not drawn), which lipid storage change, negative = inhibition is on record?
A: The lipid storage change, negative = inhibition was “inactive”.

Q: With `CSc1ccccc1OCc1cc(C(=O)NC2CCc3ccccc32)no1` (stereo not drawn) as the compound, how does the lipid storage change, negative = inhibition read?
A: Its lipid storage change, negative = inhibition is inconclusive: -26.1%.

Q: Which Potency does the source give for `CCCCOC(=O)CSc1nc(N)c(C#N)c(-c2ccc(OC)cc2)c1C#N` here?
A: The Potency was inconclusive: 23.1 µM [activator, single point].

Q: For `NC(=O)c1c(NC(=O)c2ccc(F)cc2Cl)sc2c1CCC2`, which lipid storage change, negative = inhibition is on record?
A: The lipid storage change, negative = inhibition was “inactive”.

Q: For `O=C(Cn1cc(Cl)ccc1=O)c1ccc(Cl)cc1`, which lipid storage change, negative = inhibition is on record?
A: Its lipid storage change, negative = inhibition is inconclusive: 63.8%.

Q: With `COc1nc(N(C)C)nc(N(OC)S(=O)(=O)c2ccccc2Cl)n1` as the compound, how does the lipid storage change, negative = inhibition read?
A: Its lipid storage change, negative = inhibition is inconclusive: 30.7%.

Q: With `O=C(COC(=O)Cc1c(F)cccc1Cl)NC(=O)c1ccccc1` as the compound, how does the lipid storage change, negative = inhibition read?
A: The lipid storage change, negative = inhibition was inconclusive: 3.44%.

Q: With `COc1ccc(C2=NOC(C(=O)NCCN3CCOCC3)C2)cc1` (stereo not drawn) as the compound, how does the lipid storage change, negative = inhibition read?
A: Its lipid storage change, negative = inhibition is inconclusive: 95.8%.

Q: With `CCCC(=O)NC(c1ccc(OC)cc1)c1ccc2cccnc2c1O` (stereo not drawn) as the compound, how does the lipid storage change, negative = inhibition read?
A: Its lipid storage change, negative = inhibition is inconclusive: -80.7%.

Q: For `CCOc1ccc(Cl)cc1S(=O)(=O)N1CCC(C(=O)NCc2ccco2)CC1`, which Potency is on record?
A: The Potency was inconclusive: 29.1 µM [activator, single point].

Q: With `O=C(CSC(=S)N1CCCC1)N(Cc1nnc(-c2ccccc2Cl)o1)C1CC1` as the compound, how does the lipid storage change, negative = inhibition read?
A: Its lipid storage change, negative = inhibition is inconclusive: 48.5%.

Q: Which lipid storage change, negative = inhibition does the source give for `COc1ccccc1CCNS(=O)(=O)c1cn(C)c(=O)n(C)c1=O` here?
A: Its lipid storage change, negative = inhibition is inconclusive: -29.9%.

Q: Which Potency does the source give for `Cc1c2ccccc2nc2c(F)c(NC(C)C)c(F)c(F)c12` here?
A: The Potency was active: 20.6 µM.

Q: For `CC(OC(=O)/C=C/c1ccccc1)C(=O)Nc1ccc2c(c1)OCCO2` (stereo not drawn), which lipid storage change, negative = inhibition is on record?
A: Its lipid storage change, negative = inhibition is inconclusive: -3.07%.

Q: With `COc1ccc(C(CC(=O)c2ccc(C)cc2)Nc2ccc([N+](=O)[O-])cc2)cc1` (stereo not drawn) as the compound, how does the lipid storage change, negative = inhibition read?
A: The lipid storage change, negative = inhibition was inconclusive: 5.07%.

Q: With `COc1ccc(-c2cc(=O)oc3cc(OCC(=O)N4CCOCC4)ccc23)cc1` as the compound, how does the lipid storage change, negative = inhibition read?
A: The lipid storage change, negative = inhibition was inconclusive: 40.6%.

Q: For `N#C/C=C/N1CCN(C(=O)c2ccco2)CC1`, which lipid storage change, negative = inhibition is on record?
A: The lipid storage change, negative = inhibition was inconclusive: 0.285%.

Q: For `CCC(C)(NC(=O)c1cccc(N2C(=O)CSC2c2ccccc2)c1)C(=O)Nc1ccccc1C` (stereo not drawn), which lipid storage change, negative = inhibition is on record?
A: The lipid storage change, negative = inhibition was inconclusive: -30.8%.

Q: Which lipid storage change, negative = inhibition does the source give for `CC(C)(C)c1ccc(C(=O)NC2CCN(Cc3ccccc3)CC2)cc1` here?
A: Its lipid storage change, negative = inhibition is “inactive”.

Q: Which lipid storage change, negative = inhibition does the source give for `COc1ccc(/C=C/C(=O)N[C@@H](C)C(=O)O)cc1` here?
A: The lipid storage change, negative = inhibition was inconclusive: -10.3%.
